PubChem BioAssay AID2551 (National Center for Advancing Translational Sciences (NCATS), 2010)
Among all 310,000 compounds or so, about 17,000 (5.5%) were called active. Inconclusive means that the source gave no clear call. Such entries were picked first, then a sample of the others. Calls follow the shape of the dose curve; as a rule, active = well fitted inhibition curve with a large enough effect; inconclusive = small, poorly fitted or top-dose-only effect, or effect the other way; inactive = no such curve, though single readings can be large or run the other way. A potency beside an inconclusive call is a rough fit, not a confirmed value.

Chains of the proteins cited; added tags and fusions are not shown. Lines headed by an entry give the natural chain unless they say otherwise; changes in a name come on top.
UniProt P51450: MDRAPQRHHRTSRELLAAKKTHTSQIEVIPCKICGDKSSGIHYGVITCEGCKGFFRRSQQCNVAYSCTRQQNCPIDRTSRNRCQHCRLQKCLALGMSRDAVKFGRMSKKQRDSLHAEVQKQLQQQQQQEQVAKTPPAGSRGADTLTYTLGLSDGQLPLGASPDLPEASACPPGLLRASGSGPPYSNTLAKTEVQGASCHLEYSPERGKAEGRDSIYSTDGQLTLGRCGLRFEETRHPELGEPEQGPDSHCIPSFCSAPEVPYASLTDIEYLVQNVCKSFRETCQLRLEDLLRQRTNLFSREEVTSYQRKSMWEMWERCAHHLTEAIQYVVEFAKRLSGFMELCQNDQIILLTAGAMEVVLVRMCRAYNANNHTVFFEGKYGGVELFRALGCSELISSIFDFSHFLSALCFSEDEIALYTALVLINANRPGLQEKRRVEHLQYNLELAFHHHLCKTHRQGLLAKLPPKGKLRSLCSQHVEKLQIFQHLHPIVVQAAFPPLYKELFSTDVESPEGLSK

biological target: Nuclear receptor ROR-gamma (Mus musculus) (UniProt P51450); assay: qHTS for inhibitors of ROR gamma transcriptional activity; details: Drosophila S2 Gal4-RORgamma UAS-luciferase reporter, 20 h; activity change, negative = inhibition: at 53.6 µM (top of the series); also: nearly all actives have a fitted effect of over 60% in size
In short: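 Using a luciferase readout, inhibitors were identified by reduced reporter activity in Drosophila cells coexpressing a copper-inducible Gal4–ROR gamma fusion and UAS-driven Photinus luciferase, incubated 20 hr after 700 uM copper sulfate.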
% is scaled to controls: 0 for no effect and ±100 for the full control effect; potency is read from the fitted curve at half-maximal effect.

SMILES | Potency | activity change, negative = inhibition
COC(=O)c1sc(N2CCN(c3ccc(Cl)cc3)CC2)nc1N | inconclusive: 11.2 µM [activator, partial curve] | –
O=C(CN1CCCCCC1)Nc1ccc(Cl)cc1F | inactive | –
Cc1cc(C)cc(NC(=S)NN)c1 | active: 7.94 µM | –
CN(C)/N=C/c1ccc(P(c2ccc(/C=N/N(C)C)o2)c2ccc(/C=N/N(C)C)o2)o1 | inconclusive: 20 µM [inhibitor, single point] | –
Cc1cccc(Nc2nnc(SCC3CCCCO3)s2)c1 (configuration not stated) | active: 10 µM | –
Cc1ccccc1C(=O)Nc1ccccc1C(=O)N/N=C\c1ccco1 | active: 10 µM | –
CC(C)CNC(=O)CSc1nnc(-c2ccccn2)n1Cc1ccccc1 | inconclusive: 25.1 µM [activator, single point] | –
CCN(CC)S(=O)(=O)c1ccc(Cl)c(C(=O)Nc2ccc(Cl)cc2[N+](=O)[O-])c1 | inconclusive: 28.2 µM [activator, single point] | –
COc1cccc(C(=O)Nc2ccc3c(C)cc(=O)oc3c2)c1 | inconclusive: 2.24 µM [inhibitor, single point] | –
Cc1cc(Oc2ccccc2)nc(SCC(=O)Nc2ccc(Cl)cc2Cl)n1 | active: 3.55 µM | –
O=C(c1ccco1)N1CCN(C(=O)c2cccc3c2C(=O)N(C2CCCCC2)C3)CC1 | inactive | –
Cc1ccnc(NS(=O)(=O)c2ccc(NC(=O)CCS(=O)(=O)c3ccccc3)cc2)n1 | inconclusive: 11.2 µM [inhibitor, partial curve] | –
COc1cccc(NC(=O)Nc2ccc3nc(C)c(C)nc3c2)c1 | inconclusive: 7.94 µM [activator, partial curve] | –
CN(CC(=O)Nc1ccc(OC(F)(F)F)cc1)C(=O)Cc1c(Cl)cccc1Cl | inconclusive: 35.5 µM [activator, single point] | –
CC1CCC(NC(=O)CCS(=O)(=O)c2ccc3c(c2)NC(=O)CS3)CC1 (configuration not stated) | inactive | –
CCOCC(=O)Nc1nc2ccc(OC)cc2s1 | inactive | –
CN(C)c1ccc(C(=O)OCC(=O)N2CCOCC2)cc1 | inconclusive: 35.5 µM [activator, single point] | –
COc1cc(/C=C2\SC(=S)N(NS(=O)(=O)c3ccccc3)C2=O)cc(OC)c1OC | inconclusive: 3.55 µM [inhibitor, single point] | –
O=C(Cc1c(Cl)cccc1Cl)OCC(=O)N1CCc2ccccc2C1 | inconclusive: 6.31 µM [activator, partial curve] | –
Cc1nn(Cc2c(Cl)cccc2Cl)c(C)c1NC(=O)c1cn(-c2ccccc2)nc1-c1ccccc1 | inconclusive: 0.794 µM [inhibitor, full curve] | –
Cc1ccc(C(=O)/C=C/c2c[nH]c3ccccc23)cc1 | inconclusive: 15.8 µM [inhibitor, partial curve] | –
C[C@@]12CCC3c4ccc(OC5C=CC(c6ccccc6)OC5CO)cc4CCC3C1CCC2=O (some centres not stated) | – | inactive: -1.98% [at 10 µM]
CCOc1ccc(N2CC(O)Cn3c2nc2c3c(=O)n(CCCc3ccccc3)c(=O)n2C)cc1 (configuration not stated) | inactive | –
c1ccc(C2=NNC(c3ccco3)=Nc3ccccc32)cc1 | inconclusive: 5.62 µM [activator, single point] | –

SMILES | Potency | activity change, negative = inhibition
CC(=O)Oc1cccc(N2C(=O)C3C4C=CC(C4=C(C)C)C3C2=O)c1 (configuration not stated) | inconclusive: 15.8 µM [inhibitor, single point] | –
CNC(=S)N(CCc1c(C)[nH]c2ccc(C)cc12)Cc1cccs1 | active: 11.2 µM | –
COc1ccc(-c2nnc(NC(=O)c3ccc(F)cc3)o2)cc1 | active: 0.112 µM | –
CCc1ccc(S(=O)(=O)NC2CC(C)(C)NC(C)(C)C2)cc1 | active: 2 µM | –
Nn1c(COc2ccc(Cl)cc2)nc2ccccc2c1=O | inconclusive: 10 µM [activator, partial curve] | –
COc1ccc(COC(=O)C2=C(C)NC(=O)NC2c2cccc(Br)c2)cc1 (configuration not stated) | inconclusive: 22.4 µM [activator, partial curve] | –
COCCNC(=S)Nc1ccc(N2CCCCC2)cc1 | inconclusive: 15.8 µM [inhibitor, single point] | –
C[C@@](N)(C(=O)O)c1cccc(CC(=O)O)c1 | inactive | –
Cc1nc(N)nc(N)c1/C=C/C(C)(C)c1ccc(Cl)cc1 | inconclusive: 35.5 µM [inhibitor, single point] | –
OCc1cc(C(O)CNCCCCCCOCCCCc2ccccc2)ccc1O (configuration not stated) | inconclusive: 14.1 µM [inhibitor, single point] | –
COc1ccc(-c2nn(-c3ccccc3)cc2/C=N/NC(=S)NC(C)C)cc1OC | active: 1.41 µM | –
COc1ccc(C(=O)/C=C/c2ccccc2)cc1 | inconclusive: 35.5 µM [inhibitor, single point] | –
COCCn1c(=O)[nH]c2cc(C(=O)Nc3cccc(F)c3)ccc2c1=O | inconclusive: 22.4 µM [activator, single point] | –
O=C(Nc1cccc(/C=C/c2ccccn2)c1)c1cc(Cl)ccn1 | inconclusive: 5.62 µM [activator, single point] | –
O=C(NC(c1cccnc1)C(F)(F)F)c1cc(COc2ccc3c(c2)CCCC3)on1 (configuration not stated) | inconclusive: 3.55 µM [activator, partial curve] | –
CC(=O)c1cccc(NC(=S)NC(=O)c2ccc(C)cc2Cl)c1 | active: 11.2 µM | –
CCCn1c(CNC(=O)c2cccs2)nc2ccccc21 | inconclusive: 2 µM [inhibitor, partial curve, poor fit] | –
CCOC(=O)c1ccc(NC(=O)c2ccccc2[N+](=O)[O-])cc1 | inconclusive: 11.2 µM [activator, partial curve] | –
N=c1oc2ccc3ccccc3c2cc1C(N)=S | active: 6.31 µM | –
CN(C)CCC(=O)c1cccc(Br)c1 | inconclusive: 35.5 µM [inhibitor, single point] | –
Cc1noc(C)c1C(=O)Nc1nnc(-c2ccccc2)s1 | active: 11.2 µM | –
NS(=O)(=O)c1ccc(-c2ccc(/C=N/NC(=O)c3ccccc3O)o2)cc1 | active: 3.55 µM | –
O=[N+]([O-])c1c(NCCO)cc(N2CCC3(CC2)OCCO3)c2nonc12 | inconclusive: 22.4 µM [activator, single point] | –
COc1ccc(-c2n[nH]c(=S)nc2-c2ccc(OC)cc2)cc1 | active: 7.08 µM | –

A draw from above in order of SMILES length, low to high.
SMILES | Potency | activity change, negative = inhibition
Cc1noc(C)c1C(=O)Nc1nnc(-c2ccccc2)s1 | active: 11.2 µM | –
COCCn1c(=O)[nH]c2cc(C(=O)Nc3cccc(F)c3)ccc2c1=O | inconclusive: 22.4 µM [activator, single point] | –
COc1ccc(COC(=O)C2=C(C)NC(=O)NC2c2cccc(Br)c2)cc1 (configuration not stated) | inconclusive: 22.4 µM [activator, partial curve] | –
NS(=O)(=O)c1ccc(-c2ccc(/C=N/NC(=O)c3ccccc3O)o2)cc1 | active: 3.55 µM | –

Next records.

SMILES | Potency | activity change, negative = inhibition
O=C(c1cc(-c2ccc(O)cc2)on1)N1CCCC1 | inconclusive: 5.01 µM [inhibitor, single point] | –
CC1=C(C(=O)OCCOc2ccccc2)C(c2ccsc2)NC(=O)N1C (configuration not stated) | inconclusive: 25.1 µM [activator, single point] | –
O=C1c2ccccc2C(=O)N1OS(=O)(=O)c1ccccc1 | inconclusive: 17.8 µM [inhibitor, single point] | –
CC(C)(C)c1cnnn1-c1ccc(/C=N/Nc2ccc([N+](=O)[O-])cc2)cc1 | inconclusive: 15.8 µM [activator, single point] | –
O=C(Nc1ccc2nn(-c3ccccc3)nc2c1)c1cccs1 | inconclusive: 5.01 µM [inhibitor, partial curve] | –
COc1cc(NC(=O)Nc2cccc3cccnc23)cc(OC)c1OC | inconclusive: 12.6 µM [activator, partial curve, poor fit] | –
COC(=O)c1ccc(-n2c(C)cc(/C=N/Nc3nc(C)cc(=O)[nH]3)c2C)cc1 | inconclusive: 0.0045 µM [activator, full curve, poor fit] | –
O=[N+]([O-])c1cnc(Nc2ccccc2)nc1Nc1ccccc1 | inconclusive: 0.178 µM [activator, full curve, poor fit] | –
CCc1ccc(C(=O)COC(=O)CNC(=O)c2ccco2)cc1 | inconclusive: 0.631 µM [inhibitor, single point] | –
COc1cccc(/C=N/n2c(C)nc3ccccc32)c1OC | active: 3.16 µM | –
O=C(COc1ccc2ccccc2c1)Nc1ccncc1 | inconclusive: 31.6 µM [inhibitor, single point] | –
CCC(=O)N1CCN(c2ccc(Cl)cc2NC(=O)c2ccc([N+](=O)[O-])o2)CC1 | inconclusive: 1.26 µM [inhibitor, partial curve] | –
Cc1ccc(O)c(C2=Nc3ccccc3N=C(c3cccs3)C2)c1 | inconclusive: 35.5 µM [inhibitor, single point] | –
Cc1csc(-c2nc3ccccc3n2C)n1 | inconclusive: 14.1 µM [inhibitor, full curve] | –
CSc1ccc(CNc2ccccn2)cc1 | inactive | –
CC1Oc2ccccc2C=C1/C=C1/SC(N2CCOCC2)=NC1=O (configuration not stated) | inconclusive: 0.398 µM [inhibitor, partial curve] | –
CCOC(=O)c1sc(-c2ccccc2)cc1NC(=O)Nc1ccccc1 | inactive | –
CCc1nnc(NC(=O)c2ccc(S(=O)(=O)N(C)c3ccccc3)cc2)o1 | active: 0.447 µM | –
COc1ccc(CCC(=O)NCCS(=O)(=O)N2CCN(c3ccc(OC)cc3)CC2)cc1 | inactive | –
c1ccc(-c2cnc(CSc3ncnc4sccc34)o2)cc1 | inconclusive: 28.2 µM [inhibitor, single point] | –
CC1CCC(C(C)C)C(OC(=O)Cn2c(-c3ccc(Br)cc3)[n+](C)c3ccccc32)C1 (configuration not stated) | inconclusive: 35.5 µM [inhibitor, single point] | –
CCCOc1ccc(NC(=O)CC2C(=O)N(c3ccc(OCC)cc3)C(=S)N2C2CC2)cc1 (configuration not stated) | inconclusive: 15.8 µM [inhibitor, single point] | –
CNC(=S)Nc1ccc(Nc2ccccc2)cc1 | active: 11.2 µM | –
Cc1ccccc1CN1CCNC1=O | inconclusive: 15.8 µM [inhibitor, single point] | –
